Data as given in paper PMC10847197.
No constants are given. Whether binding was seen depends on the method and setting. Binding seen in cells or lysates may run through a third protein. Some results given as binding are weak or reduced against the parent protein; the word gives no strength.

Assays:
[1] = target: progesterone receptor membrane component 1 (PGRMC1), human (human (endogenous in post-mortem temporal cortex)) (UniProt O00264); assay: FRET or BRET; array tomography with sensitized emission FRET (Cy3 donor, Cy5 acceptor on antibodies) on 70 nm sections of human Alzheimer's temporal cortex; pixels where donor and acceptor overlap within post synapses (PSD95 objects); Aβ labelled with 6E10; percent of pixels with any FRET signal
[2] = target: cellular prion protein (PrPc), human (human (endogenous in post-mortem temporal cortex)) (UniProt P04156); assay: FRET or BRET

transmembrane protein 97 (TMEM97), human (from UniProt Q5BJF2 1-176) (receptor)
binding [1]: binds
binding [2]: binds
